According to PubChem BioAssay (NCATS):
The inconclusive results got no clear call from the source; some entries with a clear call stand among them for comparison. For part of these data: A potency beside an inconclusive call is a rough fit, not a confirmed value. Active and inactive are the calls of the source. The call rests on the fitted dose curve; in most records, active means well fitted curve in the direction sought with a large enough effect; inconclusive means small, poorly fitted or top-dose-only effect, or another doubt; inactive means no such curve, though single readings can be large; an effect the other way counts as inactive or inconclusive.

How the values were obtained:
[1] = Quantitative High-Throughput drug screen in 47 multiple myeloma cell lines against the NCATS MIPE library collection: FR4_PLB cell viability assay (AID 1918924; further: nearly all actives have a fitted effect of over 35% in size; further: potency means the concentration at half of the fitted maximal effect)
Method in brief: (§1)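 We plated 500 myeloma cells per well, pinned in MIPE 4.0 compounds, and incubated for 48 hours at 37C. ATP was then quantified with CellTiter-Glo, with DMSO and media-only wells defining 100% and 0%.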

[2] = Quantitative High-Throughput drug screen in 47 multiple myeloma cell lines against the NCATS MIPE library collection: EJM_DSMZ cell viability assay (AID 1918926; further: nearly all actives have a fitted effect of over 30% in size; further: potency means the concentration at half of the fitted maximal effect)
Method in brief: (§2)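 Inhibition of cell viability is measured here. Each line was plated at 500 cells per well, treated with MIPE 4.0 drugs, kept 48 hours at 37C, then assayed for ATP content by CellTiter-Glo luminescence.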

[3] = Quantitative High-Throughput drug screen in 47 multiple myeloma cell lines against the NCATS MIPE library collection: ARD_JJKsccE7 cell viability assay (AID 1918929; further: potency means the concentration at half of the fitted maximal effect); settings: ARD myeloma cell line viability, CellTiter-Glo, 48 h; viability: at 45.8 µM (top of the series)
Method in brief: as §2

[4] = Quantitative High-Throughput drug screen in 47 multiple myeloma cell lines against the NCATS MIPE library collection: KHM11_PLB cell viability assay (AID 1918962); settings: KHM11 myeloma cell viability, CellTiter-Glo ATP luminescence, 48 h; series mostly up to 45.8 µM; further: nearly all actives have a fitted effect of over 35% in size; further: potency means the concentration at half of the fitted maximal effect
Method in brief: as §1

[5] = Quantitative High-Throughput drug screen in 47 multiple myeloma cell lines against the NCATS MIPE library collection: JIM1_ECACC cell viability assay (AID 1918964; further: potency means the concentration at half of the fitted maximal effect); settings: JIM1 myeloma viability, CellTiter-Glo ATP luminescence, 48 h; viability (% of DMSO): at 45.8 µM (top of the series)
Method in brief: as §2

[6] = Quantitative High-Throughput drug screen in 47 multiple myeloma cell lines against the NCATS MIPE library collection: INA6_PLB cell viability assay (AID 1918965; further: nearly all actives have a fitted effect of over 55% in size; further: potency means the concentration at half of the fitted maximal effect); settings: INA6 myeloma viability, CellTiter-Glo ATP luminescence, 48 h; viability (% of control): at 45.8 µM (top of the series)
Method in brief: (§3)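 Viability readout: CellTiter-Glo luminescence following 5 min room-temperature incubation with reagent. Prior exposure: 48 h, 37C, humidified 5% CO2, 500 cells per well.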

[7] = Quantitative High-Throughput drug screen in 47 multiple myeloma cell lines against the NCATS MIPE library collection: JJN3_DSMZ cell viability assay (AID 1918966; further: nearly all actives have a fitted effect of over 50% in size; further: potency means the concentration at half of the fitted maximal effect); settings: JJN3 myeloma cells viability, CellTiter-Glo ATP, 48 h; viability, % of DMSO: at 45.8 µM (top of the series)
Method in brief: as §2

[8] = Quantitative High-Throughput drug screen in 47 multiple myeloma cell lines against the NCATS MIPE library collection: ARP1_JJKsccF8 cell viability assay (AID 1918928; further: nearly all actives have a fitted effect of over 40% in size; further: potency means the concentration at half of the fitted maximal effect)
Method in brief: (§4)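 Cell viability inhibition in this qHTS is measured via ATP content (CellTiter-Glo) after 48 h drug exposure at 37 °C. Wells hold 500 cells; DMSO-treated wells define 100% and medium-only wells 0%.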

[9] = Quantitative High-Throughput drug screen in 47 multiple myeloma cell lines against the NCATS MIPE library collection: Karpas620_DSMZ cell viability assay (AID 1918959); settings: Karpas620 myeloma viability, CellTiter-Glo ATP luminescence, 48 h; viability (% of DMSO): at 45.8 µM (top of the series); further: nearly all actives have a fitted effect of over 30% in size; further: potency means the concentration at half of the fitted maximal effect
Method in brief: as §1

[10] = Quantitative High-Throughput drug screen in 47 multiple myeloma cell lines against the NCATS MIPE library collection: Karpas417_ECACC cell viability assay (AID 1918961); settings: Karpas417 myeloma viability, CellTiter-Glo ATP luminescence, 48 h; viability (% of DMSO): at 45.8 µM (top of the series); further: potency means the concentration at half of the fitted maximal effect
Method in brief: as §3

[11] = Quantitative High-Throughput drug screen in 47 multiple myeloma cell lines against the NCATS MIPE library collection: JIM3_ECACC cell viability assay (AID 1918963; further: nearly all actives have a fitted effect of over 35% in size; further: potency means the concentration at half of the fitted maximal effect)
Method in brief: as §1

[12] = Quantitative High-Throughput drug screen in 47 multiple myeloma cell lines against the NCATS MIPE library collection: H1112_PLB cell viability assay (AID 1918967; further: nearly all actives have a fitted effect of over 30% in size; further: potency means the concentration at half of the fitted maximal effect)
Method in brief: as §2

[13] = Quantitative High-Throughput drug screen in 47 multiple myeloma cell lines against the NCATS MIPE library collection: KMS27_JCRB cell viability assay (AID 1918970); settings: KMS27 myeloma cells, CellTiter-Glo ATP viability, 48 h; viability (% of DMSO): at 45.8 µM (top of the series); further: nearly all actives have a fitted effect of over 30% in size; further: potency means the concentration at half of the fitted maximal effect
Method in brief: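 Luminescent ATP read-out (CellTiter-Glo, 5 min at room temperature) after 48 h compound exposure of 500 KMS27_JCRB cells per well; DMSO wells define full viability and media-only wells zero.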

[14] = Quantitative High-Throughput drug screen in 47 multiple myeloma cell lines against the NCATS MIPE library collection: AMO1_DSMZ cell viability assay (AID 1918927; further: nearly all actives have a fitted effect of over 30% in size; further: potency means the concentration at half of the fitted maximal effect)
Method in brief: as §2

[15] = Quantitative High-Throughput drug screen in 47 multiple myeloma cell lines against the NCATS MIPE library collection: KMM1_JCRB cell viability assay (AID 1918960); settings: KMM1 myeloma viability, CellTiter-Glo ATP luminescence, 48 h; viability (% of DMSO): at 45.8 µM (top of the series); further: nearly all actives have a fitted effect of over 30% in size; further: potency means the concentration at half of the fitted maximal effect
Method in brief: as §4

[16] = Quantitative High-Throughput drug screen in 47 multiple myeloma cell lines against the NCATS MIPE library collection: Karpas25_ECACC cell viability assay (AID 1918968; further: nearly all actives have a fitted effect of over 35% in size); settings: Karpas25 myeloma viability, CellTiter-Glo ATP, 48 h; viability (% of control): at 45.8 µM (top of the series)
Method in brief: as §2

Measured: Potency

O=C(O)[C@@H](c1ccc(OCc2ccc3ccccc3n2)cc1)C1CCCC1
inconclusive: [2] 5.9 µM [cytotoxic, partial curve, poor fit] | [5] 0.418 µM [cytotoxic, full curve, poor fit] | [7] 0.0105 µM [rising, full curve, poor fit]
inactive: [1] | [3] | [4] | [6]

Cc1cc(OCCCc2c(C(=O)O)n(Cc3cccnc3)c3c(-c4c(COc5ccc(N6CCN([S+](C)(=O)[O-])CC6)cc5)nn(C)c4C)cccc23)cc(C)c1Cl
inactive: [3] | [9] | [13]
active: [7] 26.4 µM
inconclusive: [1] 33.2 µM [cytotoxic, single point] | [2] 16.6 µM [cytotoxic, partial curve] | [8] 29.6 µM [cytotoxic, single point] | [10] 3.32 µM [cytotoxic, partial curve, poor fit] | [4] 16.6 µM [cytotoxic, partial curve, poor fit] | [11] 20.9 µM [cytotoxic, partial curve] | [5] 5.26 µM [cytotoxic, partial curve, poor fit] | [12] 18.7 µM [cytotoxic, partial curve]

COc1ccc(C2Sc3ccccc3N(CCN(C)C)C(=O)C2OC(C)=O)cc1 (configuration not stated)
inactive: [1] | [15] | [4] | [11] | [7]
inconclusive: [2] 0.0187 µM [cytotoxic, full curve, poor fit] | [14] 0.0012 µM [cytotoxic, full curve, poor fit] | [8] 0.132 µM [cytotoxic, full curve, poor fit] | [5] 33.2 µM [cytotoxic, single point] | [6] 0.0148 µM [cytotoxic, full curve, poor fit] | [13] 0.0066 µM [cytotoxic, full curve, poor fit]

O=C(NOCC1CC1)c1ccc(F)c(F)c1Nc1ccc(I)cc1Cl
active: [1] 23.5 µM | [9] 0.372 µM | [4] 0.0235 µM | [11] 6.62 µM | [7] 20.9 µM
inconclusive: [2] 20.9 µM [cytotoxic, partial curve] | [8] 23.5 µM [cytotoxic, partial curve, poor fit] | [12] 20.9 µM [cytotoxic, partial curve]

CCCCCCCCOc1ccccc1C(=O)Nc1ccc(C(=O)OCC[N+](C)(CC)CC)cc1
active: [9] 5.9 µM | [6] 18.7 µM
inconclusive: [1] 20.9 µM [cytotoxic, partial curve, poor fit] | [2] 20.9 µM [cytotoxic, partial curve, poor fit] | [15] 7.43 µM [cytotoxic, single point] | [10] 11.8 µM [rising, partial curve, poor fit] | [4] 18.7 µM [cytotoxic, partial curve, poor fit] | [11] 16.6 µM [cytotoxic, partial curve] | [5] 9.35 µM [cytotoxic, single point] | [7] 13.2 µM [cytotoxic, partial curve] | [12] 18.7 µM [cytotoxic, partial curve]

O=c1c2ccccc2nc2n1CCc1c-2[nH]c2ccccc12
inconclusive: [2] 23.5 µM [cytotoxic, partial curve, poor fit] | [8] 0.0017 µM [cytotoxic, full curve, poor fit] | [15] 18.7 µM [cytotoxic, partial curve, poor fit] | [4] 0.526 µM [rising, full curve] | [11] 37.2 µM [cytotoxic, single point] | [6] 18.7 µM [cytotoxic, single point] | [7] 6.62 µM [cytotoxic, full curve, poor fit] | [12] 33.2 µM [cytotoxic, single point] | [13] 0.332 µM [rising, full curve, poor fit]
inactive: [1] | [3] | [10] | [5] | [16]

CNC1[C@H](O)C(O[C@@H]2C(O)C(O[C@H]3O[C@H]([C@@H](C)NC)CC[C@H]3N)[C@@H](N)C[C@H]2N)OC[C@]1(C)O (some centres not stated)
inactive: [1] | [2] | [8] | [4] | [16] | [13]
inconclusive: [10] 0.0047 µM [rising, full curve, poor fit] | [5] 0.132 µM [cytotoxic, full curve, poor fit] | [7] 0.0047 µM [cytotoxic, full curve, poor fit]

Cc1[nH]c(C=C2C(=O)Nc3ccccc32)c(C)c1CCC(=O)O
inconclusive: [1] 37.2 µM [cytotoxic, single point] | [8] 18.7 µM [cytotoxic, partial curve] | [4] 18.7 µM [cytotoxic, partial curve, poor fit] | [11] 20.9 µM [cytotoxic, partial curve]
active: [2] 5.9 µM | [9] 18.7 µM | [10] 23.5 µM | [5] 2.96 µM | [12] 4.18 µM

O=C1NC(=O)C(=Cc2ccc3nccnc3c2)S1
inconclusive: [1] 14.4 µM [cytotoxic, single point] | [2] 10.2 µM [cytotoxic, partial curve] | [3] 1.02 µM [cytotoxic, full curve, poor fit] | [4] 5.75 µM [cytotoxic, full curve, poor fit] | [5] 0.0023 µM [cytotoxic, full curve, poor fit]
active: [8] 10.2 µM | [13] 2.29 µM

NC(CO)C(=O)NNCc1ccc(O)c(O)c1O (configuration not stated)
inconclusive: [1] 33.2 µM [cytotoxic, single point] | [2] 37.2 µM [cytotoxic, single point] | [15] 0.0332 µM [rising, full curve, poor fit] | [10] 0.0023 µM [cytotoxic, full curve, poor fit]
inactive: [14] | [9] | [4] | [12] | [13]

CC1(C)OC2=C(C(=O)c3ccccc3C2=O)[C@H](NCc2ccccc2)[C@H]1O
active: [1] 2.64 µM | [2] 2.35 µM | [15] 2.35 µM | [10] 1.87 µM | [5] 2.64 µM | [6] 2.09 µM

O=C(C=Cc1ccc(O)cc1)c1ccc(O)cc1O
inconclusive: [1] 16.6 µM [cytotoxic, partial curve] | [2] 18.7 µM [cytotoxic, partial curve] | [8] 37.2 µM [cytotoxic, single point] | [3] 20.9 µM [cytotoxic, partial curve] | [9] 20.9 µM [cytotoxic, partial curve] | [10] 16.6 µM [cytotoxic, partial curve, poor fit] | [4] 26.4 µM [cytotoxic, single point] | [12] 37.2 µM [cytotoxic, single point] | [13] 13.2 µM [cytotoxic, partial curve]

In the list so far, 2 have four or more nitrogen atoms:
Cc1cc(OCCCc2c(C(=O)O)n(Cc3cccnc3)c3c(-c4c(COc5ccc(N6CCN([S+](C)(=O)[O-])CC6)cc5)nn(C)c4C)cccc23)cc(C)c1Cl
inactive: [3] | [9] | [13]
active: [7] 26.4 µM
inconclusive: [1] 33.2 µM [cytotoxic, single point] | [2] 16.6 µM [cytotoxic, partial curve] | [8] 29.6 µM [cytotoxic, single point] | [10] 3.32 µM [cytotoxic, partial curve, poor fit] | [4] 16.6 µM [cytotoxic, partial curve, poor fit] | [11] 20.9 µM [cytotoxic, partial curve] | [5] 5.26 µM [cytotoxic, partial curve, poor fit] | [12] 18.7 µM [cytotoxic, partial curve]

CNC1[C@H](O)C(O[C@@H]2C(O)C(O[C@H]3O[C@H]([C@@H](C)NC)CC[C@H]3N)[C@@H](N)C[C@H]2N)OC[C@]1(C)O (some centres not stated)
inactive: [1] | [2] | [8] | [4] | [16] | [13]
inconclusive: [10] 0.0047 µM [rising, full curve, poor fit] | [5] 0.132 µM [cytotoxic, full curve, poor fit] | [7] 0.0047 µM [cytotoxic, full curve, poor fit]

(continued)

Oc1cc(O)cc(C=Cc2ccc(O)c(O)c2)c1
inconclusive: [1] 16.6 µM [cytotoxic, partial curve] | [8] 23.5 µM [cytotoxic, partial curve] | [10] 26.4 µM [cytotoxic, partial curve, poor fit] | [4] 18.7 µM [cytotoxic, partial curve, poor fit]
active: [2] 20.9 µM | [11] 14.8 µM | [7] 16.6 µM | [12] 13.2 µM

Cc1ccccc1C(C(=O)NC1CCCC1)N(C(=O)Cn1cnc2ccccc21)c1cccc(F)c1 (configuration not stated)
inconclusive: [1] 14.8 µM [cytotoxic, partial curve, poor fit] | [8] 2.64 µM [cytotoxic, full curve, poor fit] | [3] 0.0037 µM [cytotoxic, full curve, poor fit] | [10] 9.35 µM [cytotoxic, partial curve, poor fit] | [4] 6.62 µM [cytotoxic, partial curve] | [11] 23.5 µM [cytotoxic, single point] | [5] 0.0332 µM [cytotoxic, full curve, poor fit] | [7] 5.9 µM [cytotoxic, partial curve, poor fit] | [12] 23.5 µM [cytotoxic, single point]
inactive: [2] | [13]
active: [14] 0.0264 µM
